PubChem BioAssay AID504774, Drosophila RNAi Screening Center | 2011

Assay: 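Knock-downs that shift viability of MMS-exposed cells relative to untreated ones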 (primary screen)
Cell system: Drosophila Kc167 cells
Reagent: long dsRNA against Drosophila genes, about 0.25 µg dsRNA per well
Duration: about 6 days: 3 days knock-down, then 3 days with or without MMS
Treatment: methyl methanesulphonate 0.004% (w/v) for 3 days after knock-down
Measurement: 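Viability in wells given MMS, read as ATP luminescence, normalised by quantiles plate by plate and averaged across replicates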
Reading the numbers: mean viability with MMS and viability with MMS: higher = more surviving cells after MMS
The screen tested about 23,000 reagents; shown is a random part of those that have a named target and a result. 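Values are quantile-normalised luminescence on an arbitrary scale; higher means more cells surviving MMS.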 A plus sign joins genes that one reagent is predicted to hit. No sequences are given here.

predicted target	dsRNA	mean viability with MMS	viability with MMS, replicate 1	viability with MMS, replicate 2
rdgC (GeneID 40224)	DRSC11387	3.75e6	4.47e6	3.92e6
jtb (GeneID 36838)	DRSC06868	3.49e6	3.90e6	4.00e6
CG7080 (GeneID 42609)	DRSC16193	3.60e6	4.07e6	4.08e6
CG18747 (GeneID 59143)	DRSC15384	3.60e6	4.16e6	4.00e6
CG3708 (GeneID 31039)	DRSC18646	3.62e6	3.92e6	4.29e6
Zip88E (GeneID 41847)	DRSC15562	3.67e6	4.03e6	4.32e6
UQCR-C1 (GeneID 41800)	DRSC15508	3.67e6	4.05e6	4.30e6
Sk1 (GeneID 32089)	DRSC19774	3.37e6	3.81e6	3.85e6
Jhedup (GeneID 36779)	DRSC07173	3.63e6	4.05e6	4.15e6
CG42674 (GeneID 40205)	DRSC10066	2.18e6	4.31e6	
CG42674 (GeneID 40205)	DRSC10067	3.31e6	3.75e6	3.71e6
CG42674 (GeneID 40205)	DRSC10811	3.53e6	3.98e6	4.01e6
CG13131 (GeneID 34334)	DRSC02227	3.42e6	3.84e6	3.90e6
CG13131 (GeneID 34334)	DRSC23253	3.04e6	3.19e6	3.60e6
fuss (GeneID 43835)	DRSC17200	3.69e6	4.12e6	4.23e6
fuss (GeneID 43835)	DRSC21452	3.47e6	3.99e6	3.92e6
Arv1 (GeneID 318031)	DRSC11491	3.53e6	3.97e6	4.04e6
Gr93c (GeneID 117471)	DRSC14587	3.59e6	4.01e6	4.13e6
Jasper (GeneID 43576)	DRSC16352	3.66e6	4.20e6	4.09e6
Mtr4 (GeneID 48782)	DRSC03560	3.18e6	3.44e6	3.72e6
Octbeta3R (GeneID 3885573)	DRSC15351	3.51e6	3.98e6	4.00e6
Octbeta3R (GeneID 3885573)	DRSC16191	3.52e6	4.00e6	3.99e6
Octbeta3R (GeneID 3885573)	DRSC21853	3.47e6	3.91e6	3.97e6
Octbeta3R (GeneID 3885573)	DRSC21902	3.33e6	3.86e6	3.85e6
Octbeta3R (GeneID 3885573)	DRSC22350	3.56e6	3.94e6	4.11e6
CG5681 (GeneID 35074)	DRSC02876	3.55e6	3.96e6	4.09e6
acj6 (GeneID 47080)	DRSC20304	3.66e6	4.05e6	3.93e6
Nup107 (GeneID 34481)	DRSC01999	3.03e6	3.56e6	3.61e6
CG31835 + CG42585	DRSC01412	3.58e6	4.15e6	3.95e6
CG14286 (GeneID 42280)	DRSC14767	3.52e6	4.08e6	3.91e6
Sf3a1 (GeneID 42048)	DRSC15166	3.01e6	3.63e6	3.63e6
CG15255 (GeneID 34913)	DRSC01869	3.39e6	3.82e6	3.84e6
ACXC (GeneID 34689)	DRSC00846	3.51e6	3.97e6	4.00e6
CG2691 (GeneID 32320)	DRSC19866	3.37e6	3.75e6	4.08e6
CG14756 (GeneID 35798)	DRSC06491	3.50e6	4.01e6	3.95e6
Glut3 (GeneID 42036)	DRSC16681	3.53e6	4.06e6	3.96e6
CG15226 (retired record) (GeneID 37353)	DRSC03829	3.55e6	4.07e6	3.97e6
CG15226 (retired record) (GeneID 37353)	DRSC04233	3.47e6	3.91e6	3.95e6
CG11696 (GeneID 32104)	DRSC19417	3.34e6	3.59e6	3.76e6
CG9875 (GeneID 37698)	DRSC04585	3.81e6	4.22e6	4.34e6
CG9269 (GeneID 41663)	DRSC16465	3.52e6	3.88e6	4.10e6
CG30371 (GeneID 35806)	DRSC06835	3.53e6	4.03e6	3.98e6

Sorted by “viability with MMS, replicate 1” (low to high): 5 of the entries above
predicted target	dsRNA	mean viability with MMS	viability with MMS, replicate 1	viability with MMS, replicate 2
Mtr4 (GeneID 48782)	DRSC03560	3.18e6	3.44e6	3.72e6
Octbeta3R (GeneID 3885573)	DRSC15351	3.51e6	3.98e6	4.00e6
Octbeta3R (GeneID 3885573)	DRSC16191	3.52e6	4.00e6	3.99e6
Gr93c (GeneID 117471)	DRSC14587	3.59e6	4.01e6	4.13e6
Jasper (GeneID 43576)	DRSC16352	3.66e6	4.20e6	4.09e6

Further records follow:
predicted target	dsRNA	mean viability with MMS	viability with MMS, replicate 1	viability with MMS, replicate 2
CG10674 (GeneID 38602)	DRSC09775	3.86e6	4.48e6	4.19e6
CG15498 (GeneID 42548)	DRSC15040	3.81e6	4.37e6	4.25e6
CG32486 (GeneID 38367)	DRSC08413	3.48e6	3.91e6	3.98e6
CG32486 (GeneID 38367)	DRSC08488	3.53e6	3.94e6	4.06e6
Sgs4 (GeneID 31304)	DRSC18715	3.70e6	4.08e6	4.28e6
CG15167 (GeneID 35134)	DRSC02468	3.58e6	4.08e6	4.05e6
Eglp1 (GeneID 37736)	DRSC04502	3.64e6	4.03e6	4.19e6
CG42505 + CG42504 + CG31358	DRSC15235	3.58e6	4.15e6	3.98e6
CG42505 + CG42504 + CG31358	DRSC15308	1.41e6	3.71e6	3.59e6
CG42505 + CG42504 + CG31358	DRSC15309	3.34e6	3.84e6	3.82e6
His4r (GeneID 41773)	DRSC16703	3.12e6	3.61e6	3.53e6
so (GeneID 35662)	DRSC07693	3.04e6	2.10e6	3.59e6
so (GeneID 35662)	DRSC23096	3.69e6	4.04e6	4.33e6
Tango5 (GeneID 326232)	DRSC18023	3.54e6	4.25e6	3.90e6
CG12784 (GeneID 41903)	DRSC14539	3.59e6	4.15e6	4.02e6
spoon (GeneID 31459)	DRSC18299	3.63e6	4.31e6	4.00e6
Reps (GeneID 34542)	DRSC02940	3.90e6	4.07e6	4.77e6
CG6592 (GeneID 38687)	DRSC10669	3.58e6	4.05e6	4.09e6
Bet5 (GeneID 43590)	DRSC14600	3.79e6	4.14e6	4.41e6
Tmem63 (GeneID 35779)	DRSC06063	3.62e6	4.10e6	4.05e6
CG14805 (GeneID 31146)	DRSC18554	3.49e6	4.10e6	3.83e6
CG8516 (GeneID 41206)	DRSC16437	3.48e6	3.95e6	3.97e6
Cyp4ae1 (GeneID 31193)	DRSC18455	3.62e6	4.09e6	4.11e6
CG8778 (GeneID 36392)	DRSC07264	3.47e6	3.88e6	3.94e6
CG15011 (GeneID 38518)	DRSC08464	3.54e6	3.99e6	4.04e6
CG10725 (GeneID 39510)	DRSC09788	3.31e6	3.83e6	3.72e6
